Where “and” joins values, the source holds several entries; their conditions need not be identical. Equal values may be shown once.
Key:
[1] = Batch LLE of ^68Ga from 1 M zinc nitrate in 0.01 M nitric acid; conditions: for ^68Ga EE (%) / distribution ratio Ds = [68Gatot]org/[68Gatot]aq: batch; for gallium-68 extracted (up to): in batch, highest value
[2] = Continuous membrane-based LLE of ^68Ga in flow (extraction and stripping); conditions: highest value
[3] = 10 mM extractant in heptane, RT
[4] = 10 mM extractant in anisole, 50 °C
[5] = 10 mM extractant in anisole, RT
[6] = 10 mM extractant in CHCl3/heptane 3/1 (v/v), RT
[7] = 10 mM extractant in heptane/TFT 1:1 (v/v), RT
[8] = 10 mM extractant in heptane, 50 °C
[9] = 10 mM extractant in Bu2O, 50 °C

CCCCCCCCOP(=O)(O)C(Nc1ccccc1)c1ccccc1 (stereo not drawn) [Extractant 1, reference compound]
EE ([1]; aqueous phase 0.01 M HNO3): 30%
EE ([1]; aqueous phase 0.2 M HNO3): 4.2%
EE ([1]; aqueous phase 1 M HNO3): 1.2%
^68Ga EE (%) [1, 3]: 30.6 ± 2.0%
distribution ratio Ds = [68Gatot]org/[68Gatot]aq [1, 3]: 10.2

COP(=O)(O)C(Nc1ccc(C(C)(C)C)cc1)c1ccc(C(C)(C)C)cc1 (stereo not drawn) [Extractant 2]
^68Ga EE (%) [1, 4]: 32.9 ± 2.3%
distribution ratio Ds = [68Gatot]org/[68Gatot]aq [1, 4]: 11.0
^68Ga EE (%) [1, 5]: 8.3 ± 3.1%
distribution ratio Ds = [68Gatot]org/[68Gatot]aq [1, 5]: 2.8

CCCCCCCCOP(=O)(O)C(Nc1ccc(OC)cc1)c1cccs1 (stereo not drawn) [Extractant 3]
^68Ga EE (%) [1, 6]: 20.8 ± 2.0%
distribution ratio Ds = [68Gatot]org/[68Gatot]aq [1, 6]: 7.0

CCCCCCCCOP(=O)(O)C(Nc1ccc(C(F)(F)F)cc1)c1ccc(C(C)(C)C)cc1 (stereo not drawn) [Extractant 4]
^68Ga EE (%) ([1]; 10 mM extractant in Bu2O, RT): 8.1 ± 2.4%
distribution ratio Ds = [68Gatot]org/[68Gatot]aq ([1]; 10 mM extractant in Bu2O, RT): 2.7
EE ([1]; phosphonic acid versus its potassium salt, solvent and temperature not stated): 8%

CCCCCCCCOP(=O)(O)C(Nc1ccc(OC)cc1)c1ccc(C(F)(F)F)cc1 (stereo not drawn) [Extractant 5]
^68Ga EE (%) ([1]; 10 mM extractant in Bu2O, RT): 34.1 ± 2.0%
distribution ratio Ds = [68Gatot]org/[68Gatot]aq ([1]; 10 mM extractant in Bu2O, RT): 11.4

COP(=O)(O)C(Nc1ccc(C(F)(F)F)cc1)c1cc(C(F)(F)F)cc(C(F)(F)F)c1 (stereo not drawn) [Extractant 6]
^68Ga EE (%) ([1]; 10 mM extractant in Bu2O, RT): 24.8 ± 1.9%
distribution ratio Ds = [68Gatot]org/[68Gatot]aq ([1]; 10 mM extractant in Bu2O, RT): 8.3
^68Ga EE (%) [1, 7]: 49.7 ± 2.6%
distribution ratio Ds = [68Gatot]org/[68Gatot]aq [1, 7]: 16.6

CCCCCCCCOP(=O)(O)C(Nc1cc(C(F)(F)F)cc(C(F)(F)F)c1)c1ccc(C(C)(C)C)cc1 (stereo not drawn) [Extractant 7]
^68Ga EE (%) [1, 8]: 37.7 ± 2.3%
distribution ratio Ds = [68Gatot]org/[68Gatot]aq [1, 8]: 12.6
^68Ga EE (%) [1, 3]: 16.4 ± 2.0%
distribution ratio Ds = [68Gatot]org/[68Gatot]aq [1, 3]: 5.5

COCCOCCOP(=O)(O)C(Nc1cc(C(F)(F)F)cc(C(F)(F)F)c1)c1ccc(C(F)(F)F)cc1 (stereo not drawn) [Extractant 8]
^68Ga EE (%) [1, 9]: 80.1 ± 3.0%
distribution ratio Ds = [68Gatot]org/[68Gatot]aq [1, 9]: 26.7
^68Ga EE (%) ([1]; 10 mM extractant in Bu2O, RT): 41.3 ± 2.5%
distribution ratio Ds = [68Gatot]org/[68Gatot]aq ([1]; 10 mM extractant in Bu2O, RT): 13.8
distribution ratio Ds = [68Gatot]org/[68Gatot]aq ([1]; 10 mM extractant in TFT, 50 °C): 29.4
^68Ga EE (%) ([1]; 10 mM extractant in TFT, RT): 60.5 ± 1.9%
distribution ratio Ds = [68Gatot]org/[68Gatot]aq ([1]; 10 mM extractant in TFT, RT): 20.2
gallium-68 extracted (up to) [1]: up to 90%
gallium-68 extracted (up to) [2]: up to 80%

COCCOCCOP(=O)(O)C(Nc1cc(C(F)(F)F)cc(C(F)(F)F)c1)c1cc(C(F)(F)F)cc(C(F)(F)F)c1 (stereo not drawn) [Extractant 9]
distribution ratio Ds = [68Gatot]org/[68Gatot]aq [1, 9]: 29.9
distribution ratio Ds = [68Gatot]org/[68Gatot]aq ([1]; 10 mM extractant in Bu2O, RT): 23.0
^68Ga EE (%) ([1]; 10 mM extractant in TFT, 50 °C): 88.2 ± 2.3% and 89.6 ± 3.5%
^68Ga EE (%) ([1]; 10 mM extractant in TFT, RT): 69.1 ± 3.0%
gallium-68 extracted (up to) [1]: up to 90%
gallium-68 extracted (up to) [2]: up to 80%

— publication PMC9735965, “Recovery of Gallium-68 and Zinc from HNO3-Based Solution by Liquid–Liquid Extraction with Arylamino Phosphonates” (Molecules, 2022)
